This assay deals with T1, His-tagged recombinant flotillin-2 (UniProt Q14254).
T1 sequence: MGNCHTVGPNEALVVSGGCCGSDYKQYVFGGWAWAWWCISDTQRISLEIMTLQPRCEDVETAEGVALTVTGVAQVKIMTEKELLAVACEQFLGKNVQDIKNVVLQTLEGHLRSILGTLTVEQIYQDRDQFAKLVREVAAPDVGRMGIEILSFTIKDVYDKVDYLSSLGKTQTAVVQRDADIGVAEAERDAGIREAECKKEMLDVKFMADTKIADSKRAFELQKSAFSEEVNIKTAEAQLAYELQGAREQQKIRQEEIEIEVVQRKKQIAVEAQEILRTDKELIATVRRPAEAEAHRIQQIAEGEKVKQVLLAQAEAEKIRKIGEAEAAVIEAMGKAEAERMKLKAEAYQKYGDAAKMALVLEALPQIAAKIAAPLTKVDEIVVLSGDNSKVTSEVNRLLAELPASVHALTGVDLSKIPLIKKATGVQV
Put plainly: affinity purification with mass spectrometry; recombinant flotillin-2 covalently conjugated to CNBr Sepharose 4B, blocked with BSA; HeLa DRM fraction mixed 1:1 with lysis buffer (50 mM Tris pH 7.5, 300 mM NaCl, 2% octyl β-D-glucopyranoside, 2 mM EDTA), 16 h; gel fragment with bands larger than 60 kDa to MS/MS; unconjugated resin as control; only the target purified.

No constants are given. Whether binding was seen depends on the method and setting. In cells and extracts the contact can be indirect. A yes stands for co-enrichment or nearness to the bait. Other partners may have been found. Sequences can lack the tags named with a protein.

B1: EFR3A (endogenous, HeLa cells) (protein, UniProt Q14156 1-821)
chain: MPTRVCCCCSALRPRYKRLVDNIFPEDPKDGLVKTDMEKLTFYAVSAPEKLDRIGSYLAERLSRDVVRHRSGYVLIAMEALDQLLMACHSQSIKPFVESFLHMVAKLLESGEPKLQVLGTNSFVKFANIEEDTPSYHRRYDFFVSRFSAMCHSCHSDPEIRTEIRIAGIRGIQGVVRKTVNDELRATIWEPQHMDKIVPSLLFNMQKIEEVDSRIGPPSSPSATDKEENPAVLAENCFRELLGRATFGNMNNAVRPVFAHLDHHKLWDPNEFAVHCFKIIMYSIQAQYSHHVIQEILGHLDARKKDAPRVRAGIIQVLLEAVAIAAKGSIGPTVLEVFNTLLKHLRLSVEFEANDLQGGSVGSVNLNTSSKDNDEKIVQNAIIQTIGFFGSNLPDYQRSEIMMFIMGKVPVFGTSTHTLDISQLGDLGTRRIQIMLLRSLLMVTSGYKAKTIVTALPGSFLDPLLSPSLMEDYELRQLVLEVMHNLMDRHDNRAKLRGIRIIPDVADLKIKREKICRQDTSFMKKNGQQLYRHIYLGCKEEDNVQKNYELLYTSLALITIELANEEVVIDLIRLAIALQDSAIINEDNLPMFHRCGIMALVAAYLNFVSQMIAVPAFCQHVSKVIEIRTMEAPYFLPEHIFRDKCMLPKSLEKHEKDLYFLTNKIAESLGGSGYSVERLSVPYVPQVTDEDRLSRRKSIVDTVSIQVDILSNNVPSDDVVSNTEEITFEALKKAIDTSGMEEQEKEKRRLVIEKFQKAPFEEIAAQCESKANLLHDRLAQILELTIRPPPSPSGTLTITSGHAQYQSVPVYEMKFPDLCVY
Consider B1, for which the binding entry is “binds”.
